Patent publication US8445500B2, “Pesticidal compositions” (Dow AgroSciences, LLC., priority 2007, dated 2013)
Some results were stated once for a whole list of compounds, not compound by compound.

Legend:
[1] = tested on: Common Fruit Fly Drosophila melanogaster Oregon Wild-Type; assay: Insecticidal assay 3, common fruit fly adults, 96-well agar plate; type: in vivo; details: adult D. melanogaster; 20 microliters of 4 micrograms per microliter in water:acetone (90:10) per well on agar/sucrose; assessed after 2 days at 22° C.
[2] = tested on: Beet Armyworm Spodoptera exigua; assay: Insecticidal assay 1, beet armyworm, 96-well diet plate; type: in vivo; details: S. exigua eggs and early instars; 2 microliters of 4 micrograms per microliter in DMSO per well on diet; 200 ppm piperonyl butoxide co-applied; assessed after 6 days at 29° C.

| Structure (SMILES) | insecticidal activity [1] | insecticidal activity [2] |
| --- | --- | --- |
| Nc1c(Cl)cnc(NNc2cc(C(F)(F)F)cc(C(F)(F)F)n2)c1Cl [Compound 22] | significant insecticidal activity | significant insecticidal activity |
| N#Cc1c(C(F)(F)F)cc(NNc2ncc(Cl)c(N)c2Cl)nc1Cl [Compound 24] | significant insecticidal activity | significant insecticidal activity |
| N#Cc1cccc(NNc2ncc(Cl)c(N)c2Cl)n1 [Compound 28] | significant insecticidal activity | significant insecticidal activity |
| CN(Nc1nc(C(F)(F)F)nc(C(F)(F)F)c1C#N)c1ccc([N+](=O)[O-])cc1 [Compound 29] | significant insecticidal activity | significant insecticidal activity |
| CN(Nc1nc(C(F)(F)F)nc(C(F)(F)F)c1C#N)c1ccc(C#N)cn1 [Compound 30] | significant insecticidal activity | significant insecticidal activity |
